Laboratory results: PubChem BioAssay AID504808 (Drosophila RNAi Screening Center, 2011)
The deposit covers about 21,000 reagents; below is an unselected part of those that have a named target and a result. Of all reagents, 18 (0.084%) are marked active. 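Raw counts without plate normalisation, one of two replicates; the ratio scores behind the calls were not deposited.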 Unmarked entries are inactive. A plus sign joins genes that one reagent is predicted to hit. The record does not give: the amount of reagent, the time to read-out.

Purpose: 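Genes whose loss lifts activity of an E2F-responsive reporter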 (primary screen)
System: Drosophila S2 cells
Knock-down reagent: long dsRNA against Drosophila genes
Read-out: 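Firefly luciferase driven by E2F sites, normalised to Renilla luciferase on the same minimal promoter, measured by plate reader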
Direction: E2F firefly: higher = more E2F reporter activity; Renilla normaliser: higher = more normaliser reporter signal
Hit rule: 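a knock-down counted as active when the firefly/Renilla E2F signal rose above 50%, a threshold chosen arbitrarily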

gene	amplicon	E2F firefly, rep 1	Renilla normaliser, rep 1
CG7065	DRSC18420	8302	848
CG8236	DRSC16399	1.31e5	5998
RpL5 (Ribosomal protein L5)	DRSC03801	64308	4535
CG15721	DRSC19688	56207	4101
CG8642	DRSC07228	1.35e5	4577
CG5510	DRSC15823	1.12e5	5717
l(1)G0004 (lethal (1) G0004)	DRSC20486	1.38e5	5619
Cap-D3 (Chromosome associated protein D3)	DRSC02349	1.45e5	4977
CG12213	DRSC14478	68196	2945
cos (costa)	DRSC07598	91479	3347
CG9948	DRSC11104	68133	3675
CG2747	DRSC15450	1.38e5	6560
RpS2 (Ribosomal protein S2)	DRSC03614	53326	249
CG3942	DRSC15525	1.72e5	6888
CG12128	DRSC06104	3150	75
CG32302	DRSC08340	1.00e5	4502
CG14326	DRSC14805	99041	5421
RpS14b (Ribosomal protein S14b)	DRSC18711	51353	5054
VhaSFD (Vacuolar H[+]-ATPase SFD subunit)	DRSC03471	71374	2955
CG33337	DRSC13632	81230	2657
CG15225	DRSC04232	1.07e5	4485
CG1648	DRSC06610	73184	3961
Drp1 (Dynamin related protein 1)	DRSC00574	87685	3929
MESK2 + CG10494	DRSC04259	1.01e5	4049
Coq6 (Coenzyme Q6)	DRSC03040	76457	3535
CG13043	DRSC09924	1.59e5	7970
CG14300	DRSC14779	1.41e5	6867
Usp32 (Ubiquitin specific protease 32)	DRSC10979	1.21e5	6097
CG9121	DRSC03142	1.36e5	4875
ssh (slingshot)	DRSC16730	1.19e5	5957
CG13229	DRSC06349	95864	3931
CG13791 (retired record)	DRSC02295	1.47e5	4715
CG42360	DRSC04224	1.03e5	4848
GstT4 (Glutathione S transferase T4)	DRSC19757	7883	844
Rab9	DRSC03281	1.03e5	4443
CG33474	DRSC05218	1.14e5	4338
LRR (Leucine-rich repeat)	DRSC06444	1.48e5	5278
yata	DRSC15408	1.24e5	6532
CG8500	DRSC16434	1.09e5	7346
CG1142	DRSC12531	1.18e5	6123
CG11714	DRSC09857	67092	3477
mTor (mechanistic Target of rapamycin)	DRSC02811	62737	2565
CG31251	DRSC16247	1.40e5	8446
RNF220 (ring finger protein 220)	DRSC15652	68882	3644
Got1 (Glutamate oxaloacetate transaminase 1)	DRSC07177	65813	3329
Hex-A (Hexokinase A)	DRSC18259	1.26e5	5879
Sps2 (Selenophosphate synthetase 2)	DRSC03441	1.47e5	4676
CG15601	DRSC19670	1.52e5	6479
CG1958	DRSC18196	1.02e5	5515
CG11444	DRSC17784	1540	828
CG7970	DRSC08605	72552	4125
DIP-kappa (Dpr-interacting protein kappa)	DRSC01336	1.31e5	7168
DIP-kappa (Dpr-interacting protein kappa)	DRSC01337	1.38e5	6383
CG8157	DRSC07085	91935	3683
Tace	DRSC16340	1877	952
CG6675	DRSC03735	1.09e5	4801
CG14556	DRSC14899	1.10e5	5755
CG3448	DRSC10368	97572	3441
CG2915	DRSC06842	2687	184
pon (partner of numb)	DRSC18823	49246	3671
CG13728	DRSC10056	1.59e5	8424
CG12644 (retired record)	DRSC17850	89306	4537
Ect3 (Ectoderm-expressed 3)	DRSC15462	1.18e5	5466
isoQC (iso Glutaminyl cyclase)	DRSC11790	1.46e5	6193
CG11356	DRSC19401	1.45e5	6286
CG18754	DRSC15387	88996	5238
shps (sheepish)	DRSC14614	1.00e5	5597
CG11741	DRSC14367	1.47e5	7578
RpL39 (Ribosomal protein L39)	DRSC04651	94403	4917
Surf6 (Surfeit 6)	DRSC15588	64398	2971
CG8746	DRSC07257	1.49e5	4882
CR18275 + CR18166 + CG32817	DRSC17249	70929	2350
Tapdelta (Translocon-associated protein delta)	DRSC05946	157	32
ms(3)K81 (male sterile (3) K81)	DRSC14746	1.17e5	6237
Herc4 (HECT and RLD domain containing E3 ubiquitin ligase 4)	DRSC08631	81040	3706
CG7550	DRSC10875	1.04e5	4240
Kr (Kruppel)	DRSC04622	99812	4045
CG6144	DRSC02934	54966	3193
Su(var)205 (Suppressor of variegation 205)	DRSC03446	82570	3503
CG12868	DRSC06207	1.05e5	4178
CG7567	DRSC16258	1.27e5	6419
PolE2 (DNA polymerase epsilon subunit 2)	DRSC09737	71536	3993
CG12491 + CG34105	DRSC04008	1.50e5	5428
CG12491 + CG34105	DRSC04124	1.12e5	4396

Ordered by “Renilla normaliser, rep 1” (high to low): 13 of the entries above.
gene	amplicon	E2F firefly, rep 1	Renilla normaliser, rep 1
CG13043	DRSC09924	1.59e5	7970
CG14300	DRSC14779	1.41e5	6867
Usp32 (Ubiquitin specific protease 32)	DRSC10979	1.21e5	6097
ssh (slingshot)	DRSC16730	1.19e5	5957
CG9121	DRSC03142	1.36e5	4875
CG13791 (retired record)	DRSC02295	1.47e5	4715
CG15225	DRSC04232	1.07e5	4485
MESK2 + CG10494	DRSC04259	1.01e5	4049
CG1648	DRSC06610	73184	3961
CG13229	DRSC06349	95864	3931
Drp1 (Dynamin related protein 1)	DRSC00574	87685	3929
Coq6 (Coenzyme Q6)	DRSC03040	76457	3535
CG33337	DRSC13632	81230	2657
